This is a selection; strong and weak results do not stand in their true shares. For some assays here: At the low end of the ranking, values are background and their order means little. The list shows a part of the results. For some assays here: The exact form of the protein is not confirmed.
What was measured:
Test in all cases: DAPPL (digital affinity profiling via proximity ligation, sequencing)
Conditions in all cases: 10 mM Tris-HCl pH 7.5, 50 mM NaCl, 1 mM DTT, 4% glycerol, room temperature, 30 min; GST-TFs on glutathione beads, 16-mer random dsDNA library, 0.1% …; high values mean tight binding; double strand, one strand shown; scale: fold enrichment (6-mer frequency, TF over GST control)
ELF1 = ELF1 (UniProt P32519)
ETV4 = target: T1, ETV4 (UniProt P43268)
T1 sequence: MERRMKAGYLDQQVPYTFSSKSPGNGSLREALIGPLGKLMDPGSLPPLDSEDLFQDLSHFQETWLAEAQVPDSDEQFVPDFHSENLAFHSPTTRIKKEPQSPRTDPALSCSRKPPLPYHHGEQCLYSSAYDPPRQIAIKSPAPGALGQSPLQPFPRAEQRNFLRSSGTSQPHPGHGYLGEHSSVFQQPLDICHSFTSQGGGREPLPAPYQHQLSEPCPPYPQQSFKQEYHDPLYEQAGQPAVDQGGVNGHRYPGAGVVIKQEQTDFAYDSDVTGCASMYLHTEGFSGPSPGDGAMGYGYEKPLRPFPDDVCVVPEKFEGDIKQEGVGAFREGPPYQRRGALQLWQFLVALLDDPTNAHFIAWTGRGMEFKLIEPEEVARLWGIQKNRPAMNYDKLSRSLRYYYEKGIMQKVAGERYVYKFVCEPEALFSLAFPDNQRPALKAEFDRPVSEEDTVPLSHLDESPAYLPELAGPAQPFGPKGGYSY

Sequences of proteins named here, by UniProt entry; tags and fusion partners are left off. A change or cut given only in a name is not applied to a line headed by its entry.
UniProt P32519: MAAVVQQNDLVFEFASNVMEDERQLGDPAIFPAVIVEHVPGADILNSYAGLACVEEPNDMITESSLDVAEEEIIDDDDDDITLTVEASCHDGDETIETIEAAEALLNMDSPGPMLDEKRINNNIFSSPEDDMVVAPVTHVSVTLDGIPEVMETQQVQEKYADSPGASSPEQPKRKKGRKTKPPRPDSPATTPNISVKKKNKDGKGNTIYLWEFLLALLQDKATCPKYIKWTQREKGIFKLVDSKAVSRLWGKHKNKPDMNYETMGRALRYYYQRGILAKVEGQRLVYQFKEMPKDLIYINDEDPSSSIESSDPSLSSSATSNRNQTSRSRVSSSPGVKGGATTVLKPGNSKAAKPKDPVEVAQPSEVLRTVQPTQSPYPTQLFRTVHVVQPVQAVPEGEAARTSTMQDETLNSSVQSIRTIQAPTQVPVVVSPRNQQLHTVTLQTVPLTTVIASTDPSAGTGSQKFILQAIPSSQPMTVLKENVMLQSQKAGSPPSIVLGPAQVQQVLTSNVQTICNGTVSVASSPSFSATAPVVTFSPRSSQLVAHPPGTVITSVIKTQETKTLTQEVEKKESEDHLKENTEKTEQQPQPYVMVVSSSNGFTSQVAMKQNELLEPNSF
UniProt P50549: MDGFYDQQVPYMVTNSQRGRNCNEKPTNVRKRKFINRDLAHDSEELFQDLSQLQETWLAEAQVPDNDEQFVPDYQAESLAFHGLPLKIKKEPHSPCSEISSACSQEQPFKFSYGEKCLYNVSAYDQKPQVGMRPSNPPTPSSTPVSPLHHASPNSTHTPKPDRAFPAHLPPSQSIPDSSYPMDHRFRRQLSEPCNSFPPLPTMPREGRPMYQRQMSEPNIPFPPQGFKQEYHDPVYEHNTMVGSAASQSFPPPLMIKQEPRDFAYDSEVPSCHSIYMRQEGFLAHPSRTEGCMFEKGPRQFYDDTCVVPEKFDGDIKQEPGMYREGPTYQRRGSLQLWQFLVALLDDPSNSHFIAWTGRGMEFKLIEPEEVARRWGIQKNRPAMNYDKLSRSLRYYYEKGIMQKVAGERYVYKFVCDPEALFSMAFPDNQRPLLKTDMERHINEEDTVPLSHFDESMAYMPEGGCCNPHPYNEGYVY

ETV1 = ETV1 (UniProt P50549)
ERF = target: T2, ERF (UniProt P50548)
T2 sequence: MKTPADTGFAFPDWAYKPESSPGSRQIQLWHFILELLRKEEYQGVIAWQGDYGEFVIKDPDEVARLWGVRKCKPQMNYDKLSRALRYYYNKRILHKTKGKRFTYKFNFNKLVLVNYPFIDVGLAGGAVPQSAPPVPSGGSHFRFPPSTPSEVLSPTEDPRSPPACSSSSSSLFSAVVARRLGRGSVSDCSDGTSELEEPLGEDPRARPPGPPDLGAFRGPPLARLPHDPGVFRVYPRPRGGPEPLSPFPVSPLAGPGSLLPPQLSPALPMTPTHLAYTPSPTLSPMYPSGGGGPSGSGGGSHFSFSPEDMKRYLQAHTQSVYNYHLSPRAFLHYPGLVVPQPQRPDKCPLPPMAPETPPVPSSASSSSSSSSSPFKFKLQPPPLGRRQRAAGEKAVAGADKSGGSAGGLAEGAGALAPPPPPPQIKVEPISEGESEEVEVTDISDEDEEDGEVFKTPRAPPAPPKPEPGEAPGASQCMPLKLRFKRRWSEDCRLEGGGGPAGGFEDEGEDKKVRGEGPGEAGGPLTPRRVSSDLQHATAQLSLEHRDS

Row | Sequence | binding signal (ELF1) | binding signal (ETV4) | binding signal (ETV1) | binding signal (ERF)
1 | TCCAAC | 1.25 | 1.23 | 1.2 | –
2 | CACTTT | – | 1.24 | – | 1.3
3 | GTCACG | 0.983 | 0.942 | 1.1 | –
4 | TGGCCC | – | 1.11 | – | 0.956
5 | TGTTCC | 1.66 | 1.7 | 1.86 | –
6 | TGCTCG | 1.18 | 1.31 | 1.28 | –
7 | TTGACG | 1.1 | 1.12 | 0.989 | –
8 | TCTCGT | 1.24 | 1.2 | 1.27 | –
9 | AGTATA | 0.941 | 0.924 | 0.964 | –
10 | AGTAAT | – | 1.1 | – | 0.998
11 | TACTCA | 1.19 | 1.27 | 1.19 | –
12 | TCTATC | 1.25 | 1.21 | 1.16 | –
13 | AAGGGC | – | 1.07 | – | 1.06
14 | CCGCAT | – | 1.45 | – | 1.46
15 | CTCGGC | – | 1.44 | – | 1.34
16 | TCGTTT | 1.15 | 1.18 | 1.18 | –
17 | ATTGGG | – | 1.17 | – | 1.31
18 | CCTAGC | 1.24 | 1.2 | 1.13 | –
19 | CCCGAT | – | 1.23 | – | 1.22
20 | GTTGTT | – | 1.11 | – | 1.06

Row | Sequence | binding signal (ELF1) | binding signal (ETV4) | binding signal (ETV1) | binding signal (ERF)
21 | CCCCAG | – | 1.07 | – | 0.993
22 | ATTTAA | – | 1.04 | – | 1.21
23 | AACTCA | – | 1.21 | – | 1.18
24 | TTATTC | – | 1.38 | – | 1.45
25 | CACTAT | – | 1.23 | – | 1.2
26 | CCCTGA | – | 1 | – | 0.994
27 | GCTACT | – | 1.37 | – | 1.52
28 | TCCTGG | – | 1.74 | – | 1.43
29 | CGAACA | – | 1.06 | – | 1.17
30 | ATACGC | – | 1.16 | – | 1.18
31 | AATCTC | – | 1.22 | – | 1.27
32 | TGACAT | – | 1.21 | – | 1.21
33 | TCCTTC | – | 2.17 | – | 1.95
34 | TAACTG | – | 1.27 | – | 1.11
35 | TCCACC | – | 1.24 | – | 1.25
36 | GCGGAA | – | 1.3 | – | 1.19
37 | AATAGG | – | 1.11 | – | 1.21
38 | GCTACA | – | 1.2 | – | 1.2
39 | GCACAT | – | 1.19 | – | 1.2
40 | ATGCTA | – | 1.26 | – | 1.26

Row | Sequence | binding signal (ELF1) | binding signal (ETV4) | binding signal (ETV1) | binding signal (ERF)
41 | CTCAAG | – | 1.12 | – | 1.27
42 | ACAAAT | – | 1.09 | – | 1.3
43 | GCCTAA | – | 1.24 | – | 1.22
44 | TAAAGG | – | 0.978 | – | 0.971
45 | CTGGAA | – | 1.2 | – | 1.26
46 | AAGCCT | – | 1.16 | – | 1.17
47 | GCACTG | – | 1.1 | – | 1.04
48 | GCCCCA | – | 1.02 | – | 0.934
49 | GTCCCG | – | 1.22 | – | 1.22
50 | TCCAAG | – | 1.12 | – | 1.03
51 | CGTCTG | – | 1.15 | – | 1.11
52 | GCAAAT | – | 1.06 | – | 1.11
53 | GACTTC | – | 2.71 | – | 2.25
54 | CTGTGC | – | 1.2 | – | 1.12
55 | TTAAGG | – | 1.04 | – | 1.16
56 | TATAGG | – | 1.13 | – | 1.18
57 | TTGGTT | – | 1.35 | – | 1.43
58 | CTGATG | – | 1.55 | – | 1.48
59 | AATAAA | – | 1.22 | – | 1.29
60 | TTGTAG | – | 1.14 | – | 1.14
